Measurements reported in PubChem BioAssay AID504744 (Drosophila RNAi Screening Center, 2011).
The screen tested about 23,000 reagents; shown is an unselected part of those with a known target gene and a result. Of all reagents, 98 (0.43%) are marked active. 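Only hit calls are given; the phospho-dAkt signals, z-scores and hit direction were not deposited.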 Names joined by + are all predicted targets of the reagent.

- Purpose: 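Identify dsRNAs that increase or decrease phospho-dAkt after insulin treatment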 (primary screen)
- System: Drosophila Kc167 cells
- Reagents: long dsRNA against Drosophila genes, 250 ng dsRNA per well of a 384-well plate
- Timing: 3 days of knock-down, then overnight serum-free starvation before stimulation
- Conditions: bovine insulin at 387 nM for 10 minutes after 12 h without serum
- Measurement: 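In-cell antibody fluorescence for phospho-dAkt in each well over DNA-dye signal, with log2 residuals expressed as z-scores adjusted for cell count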
- Call rule: 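Hit in the insulin screen when the two-replicate mean z-score is more extreme than plus or minus 2.5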

ND-B14.5AL (GeneID 40477) [DRSC11795] showed inactive.
Depletion of CAH13 (GeneID 36126) [DRSC06128] came out at: inactive.
Against CG9705 (GeneID 39875) [DRSC11094], the values are inactive.
Jhbp1 (GeneID 40613) [DRSC12167] gave inactive.
Against Fancd2 (GeneID 2768674) [DRSC15208], the entry reads inactive.
Fancd2 (GeneID 2768674) [DRSC22763] scored inactive.
With knock-down of Archease (GeneID 42551) [DRSC16025] the results were inactive.
Silencing of CG14183 (GeneID 40192) [DRSC10182] gave: inactive.
For Ste:CG33238 + Ste:CG33241 + Ste:CG33236 + 11 more [DRSC19004], the values are inactive.
After knock-down of Ste:CG33238 + Ste:CG33241 + Ste:CG33236 + 11 more [DRSC21260] the results were inactive.
SkpC (GeneID 32996) [DRSC20375] scored inactive.
After knock-down of CG10631 (GeneID 35262) [DRSC02081], the screen gave inactive.
Depletion of Ir52a (GeneID 36715) [DRSC06262] gave: inactive.
For Scsalpha1 (GeneID 38447) [DRSC08698], the entry reads inactive.
After knock-down of Icmt (GeneID 39478) [DRSC09834] the results were inactive.
CG32137 (GeneID 39537) [DRSC10271] showed inactive.
Silencing of CG32137 (GeneID 39537) [DRSC10272] came out at: inactive.
Silencing of CG4911 (GeneID 39043) [DRSC10456] came out at: inactive.
After knock-down of CG1137 (GeneID 40803) [DRSC12529], the record shows inactive.
After knock-down of Sac1 (GeneID 38137) [DRSC08622], the record shows inactive.
Knock-down of CG7985 (GeneID 42178) [DRSC14128] came out at: inactive.
Silencing of CG8774 (GeneID 41635) [DRSC16445] came out at: inactive.
CG9330 (GeneID 40131) [DRSC11066] showed inactive.
With knock-down of CG6790 (GeneID 41388) [DRSC16117] the results were inactive.
CG9875 (GeneID 37698) [DRSC04585] showed inactive.
Silencing of CG5968 (GeneID 34986) [DRSC02916] gave: inactive.
Sec5 (GeneID 33563) [DRSC00714] gave inactive.
With knock-down of Or19b + Or19a [DRSC22604], the record shows inactive.
Against trk (GeneID 34376) [DRSC03625], the values are inactive.
Against CG14435 (GeneID 31628) [DRSC17928], the values are inactive.
Against CG14367 (GeneID 41676) [DRSC14829] the deposit lists inactive.
Depletion of CG6216 (GeneID 39257) [DRSC10606] came out at: inactive.
Poc1 (GeneID 39502) [DRSC09713] gave inactive.
For Roe1 (GeneID 36508) [DRSC07534], the values are inactive.
CG7115 (GeneID 34069) [DRSC02000] showed inactive.
Against retn (GeneID 45976) [DRSC04679], the entry reads inactive.
CG17982 (GeneID 31739) [DRSC18143] scored inactive.
For sphinx1 (GeneID 318005) [DRSC10993], the entry reads inactive.
kibra (GeneID 41783) [DRSC14533] scored inactive.
With knock-down of kibra (GeneID 41783) [DRSC16257], the screen gave inactive.

A stretch from the list above, for reference:
Fancd2 (GeneID 2768674) [DRSC22763]: outcome = inactive
Archease (GeneID 42551) [DRSC16025]: outcome = inactive
CG14183 (GeneID 40192) [DRSC10182]: outcome = inactive
Ste:CG33238 + Ste:CG33241 + Ste:CG33236 + 11 more [DRSC19004]: outcome = inactive
Ste:CG33238 + Ste:CG33241 + Ste:CG33236 + 11 more [DRSC21260]: outcome = inactive
